{
  "sequences": {"note": "By UniProt entry, the sequences of proteins in these tests, tags left out.", "UniProt O94864": "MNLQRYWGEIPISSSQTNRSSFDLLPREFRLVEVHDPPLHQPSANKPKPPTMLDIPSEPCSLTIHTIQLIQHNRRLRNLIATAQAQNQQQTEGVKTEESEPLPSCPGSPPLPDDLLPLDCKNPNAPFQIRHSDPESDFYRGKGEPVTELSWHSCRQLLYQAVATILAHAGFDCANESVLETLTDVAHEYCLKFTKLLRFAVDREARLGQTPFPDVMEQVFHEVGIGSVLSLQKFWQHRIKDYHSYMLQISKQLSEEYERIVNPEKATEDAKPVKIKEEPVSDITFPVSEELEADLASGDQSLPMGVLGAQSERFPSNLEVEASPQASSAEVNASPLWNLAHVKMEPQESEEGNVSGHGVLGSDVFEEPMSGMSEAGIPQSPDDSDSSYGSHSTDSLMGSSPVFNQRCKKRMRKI", "UniProt P20226": "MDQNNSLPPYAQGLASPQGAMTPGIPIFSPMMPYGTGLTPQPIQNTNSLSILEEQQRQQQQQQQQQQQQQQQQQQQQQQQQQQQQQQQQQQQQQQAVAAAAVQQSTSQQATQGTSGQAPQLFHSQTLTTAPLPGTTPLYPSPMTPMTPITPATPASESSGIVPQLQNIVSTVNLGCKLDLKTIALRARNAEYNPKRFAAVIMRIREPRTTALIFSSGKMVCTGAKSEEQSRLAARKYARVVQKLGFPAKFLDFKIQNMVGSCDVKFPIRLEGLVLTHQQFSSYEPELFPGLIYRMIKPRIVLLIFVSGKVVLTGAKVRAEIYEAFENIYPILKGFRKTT"},
  "source": "paper doi:10.1101/2021.02.08.430339",
  "biological_target": "Halo-FLAG-tagged chromosomal SUPT7L (human (endogenous in HeLa)) (UniProt O94864)",
  "assay": "affinity purification with mass spectrometry",
  "note": "No constants are given. Whether binding was seen depends on the method and setting. In cells and extracts the contact can be indirect. These calls come from enrichment with a bait or labelling near it, and not all partners need be listed. A no says only that the protein was not detected with the bait.",
  "data": [
    {"substance": "endogenous TBP (TATA-binding protein) (from UniProt P20226 1-339)", "values": [
      {"measurement": "binding", "value": "no binding"}
    ]}
  ]
}
